The values that follow come from PMC8881069, “Thio- and selenosemicarbazones as antiprotozoal agents against Trypanosoma cruzi and Trichomonas vaginalis” (Journal of Enzyme Inhibition and Medicinal Chemistry, 2022).

Bounds are passed on as bounds.

The subject of one data set is Trypanosoma cruzi CL-B5 (DTU TcVI) epimastigotes. The data set is described as follows: CL-B5 lacZ epimastigote susceptibility assay (CPRG). In kind it is cell-based. The settings on record: SI = CC50 L929/IC50 CL lacZ epimastigotes.
As for `NNC(=S)Nc1cccc2ccccc12` [Compound 31], the “SI CL-B5 epi” value is on record as more than 8.91.
For `O=C(Cn1ccnc1[N+](=O)[O-])NCc1ccccc1` [Benznidazole, benznidazole, reference compound], the “SI CL-B5 epi” value is listed as more than 10.11.
Regarding `Oc1ccc(/C=N/NC(=S)Nc2ccc(Br)cc2)cc1` [Compound 47], the “SI CL-B5 epi” value is listed as 1.56.
As to `COc1ccc(NC(=S)NN)cc1` [Compound 23], the “SI CL-B5 epi” value is given as more than 4.78.
The same measure, in the same setting: the figure for `Cc1ccc(NC(=S)N/N=C/c2ccc(O)cc2)cc1` [Compound 39] is 1.54; for `NNC(=S)Nc1ccc(Cl)cc1` [Compound 25] it is 1.53; for `O=[N+]([O-])c1ccc(/C=N/NC(=S)Nc2ccc([N+](=O)[O-])cc2)cc1` [Compound 62] it is less than 0.21.
As for `NNC(=S)Nc1ccc([N+](=O)[O-])cc1` [Compound 30], the “SI CL-B5 epi” value is reported as 0.33.
The same measure, in the same setting: the figure for `Oc1ccc(/C=N/NC(=S)Nc2cccc3ccccc23)cc1O` [Compound 65] is 0.41; for `COc1ccc(/C=N/NC(=S)Nc2ccccc2)cc1` [Compound 37] it is more than 6.43; for `COc1ccc(/C=N/NC(=S)Nc2ccc(Cl)cc2)cc1` [Compound 46] it is 1.63.
For the molecule `O=[N+]([O-])c1ccc(NC(=S)N/N=C/c2ccc(O)cc2)cc1` [Compound 59], the “SI CL-B5 epi” value amounted to 0.39.
Take `Oc1ccc(/C=N/NC(=S)Nc2ccc(F)cc2)cc1O` [Compound 45]: the “SI CL-B5 epi” value stood at 0.31.
Regarding `Oc1ccc(/C=N/NC(=S)Nc2cccc3ccccc23)cc1` [Compound 63], the “SI CL-B5 epi” value is 0.58.
Same read-out and setting: the figure for `O=[N+]([O-])c1cccc(NC(=S)N/N=C/c2ccc(O)cc2)c1` [Compound 56] is 0.78; for `Oc1ccc(/C=N/NC(=S)Nc2ccc(Br)cc2)cc1O` [Compound 49] it is 0.16; for `COc1ccc(/C=N/NC(=S)Nc2ccccc2[N+](=O)[O-])cc1` [Compound 54] it is more than 1.22.
As for `Oc1ccc(/C=N/NC(=S)Nc2ccc(I)cc2)cc1` [Compound 50], the “SI CL-B5 epi” value worked out at 1.82.
As for `Cc1ccc(NC(=S)N/N=C/c2ccc(O)c(O)c2)cc1` [Compound 41], the “SI CL-B5 epi” value was 0.17.
On the same count and under the same terms, the figure for `Oc1ccc(/C=N/NC(=S)Nc2ccccc2)cc1` [Compound 36] is 0.65; for `NNC(=S)Nc1ccc(I)cc1` [Compound 27] it is 1.02; for `Oc1ccc(/C=N/NC(=S)Nc2ccccc2)cc1O` [Compound 38] it is 2.95.
As to `O=[N+]([O-])c1ccc(NC(=S)N/N=C/c2ccc(O)c(O)c2)cc1` [Compound 61], the “SI CL-B5 epi” value is listed as 0.05.
The same measure, in the same setting: the figure for `COc1ccc(NC(=S)N/N=C/c2ccc(O)cc2)cc1` [Compound 42] is 0.88.
For the molecule `Oc1ccc(/C=N/NC(=S)Nc2ccc(I)cc2)cc1O` [Compound 52], the “SI CL-B5 epi” value came out at 0.30.
Regarding `NNC(=S)Nc1cccc([N+](=O)[O-])c1` [Compound 29], the “SI CL-B5 epi” value stood at 2.58.
On to `O=[N+]([O-])c1ccccc1NC(=S)N/N=C/c1ccc(O)cc1` [Compound 53], for which the “SI CL-B5 epi” value was 1.60.
Regarding `NNC(=S)Nc1ccccc1[N+](=O)[O-]` [Compound 28], the “SI CL-B5 epi” value amounted to 4.76.
Regarding `O=[N+]([O-])c1ccccc1NC(=S)N/N=C/c1ccc(O)c(O)c1` [Compound 55], the “SI CL-B5 epi” value is listed as 0.51.
With `NNC(=S)Nc1ccc(F)cc1` [Compound 24], the “SI CL-B5 epi” value is listed as more than 4.35.
As to `O=[N+]([O-])c1cccc(NC(=S)N/N=C/c2ccc(O)c(O)c2)c1` [Compound 58], the “SI CL-B5 epi” value was determined as 0.35.

Another data set has as its system Trypanosoma cruzi CL-B5 amastigotes. Put plainly: CL-B5 lacZ intracellular amastigote susceptibility assay (CPRG). Particulars: SI = CC50 L929/IC50 CL lacZ amastigotes. It is filed as cell-based.
As to `NNC(=S)Nc1cccc2ccccc12` [Compound 31], the “SI CL-B5 ama” value is recorded as more than 6.45.
Take `O=C(Cn1ccnc1[N+](=O)[O-])NCc1ccccc1` [Benznidazole, benznidazole, reference compound]: the “SI CL-B5 ama” value is more than 544.68.
As to `COc1ccc(/C=N/NC(=S)Nc2cccc([N+](=O)[O-])c2)cc1` [Compound 57], the “SI CL-B5 ama” value is reported as more than 11.49.
Turning to `COc1ccc(/C=N/NC(=S)Nc2ccc(OC)cc2)cc1` [Compound 43], the “SI CL-B5 ama” value was more than 6.56.

The next data set has as its system Trichomonas vaginalis. The data set is described as follows: Trichomonacidal in vitro assay (resazurin). Particulars: SI = CC50 Vero cells/IC50 T. vaginalis. It is filed as cell-based. In general terms: The colour change of resazurin is a common sign of viable cells or microbes.
Turning to `COc1ccc(/C=N/NC(=[Se])Nc2ccc(I)cc2)cc1` [Compound 75], the “SI (T. vaginalis)” value is listed as “higher than 10”.
On the same count and under the same terms, the entry for `Oc1ccc(/C=N/NC(=[Se])Nc2ccc(Br)cc2)cc1O` [Compound 74] is “higher than 10”.
